According to article doi:10.1101/2025.05.06.652320:
Where two headings read alike, the source gives them in different places. These are yes or no findings as the source states them, for the method shown. Binding seen in cells or lysates may run through a third protein. Here binding means that the protein was enriched with, or labelled near, the bait; the list need not be complete.

By UniProt entry, the sequences of proteins in these tests, tags left out. Residues count along the entry.
UniProt Q13526: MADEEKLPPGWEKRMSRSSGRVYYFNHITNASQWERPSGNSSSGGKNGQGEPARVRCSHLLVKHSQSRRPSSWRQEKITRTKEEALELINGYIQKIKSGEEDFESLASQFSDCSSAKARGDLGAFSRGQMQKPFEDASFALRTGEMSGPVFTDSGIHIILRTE
UniProt P13612, residues 34-1032: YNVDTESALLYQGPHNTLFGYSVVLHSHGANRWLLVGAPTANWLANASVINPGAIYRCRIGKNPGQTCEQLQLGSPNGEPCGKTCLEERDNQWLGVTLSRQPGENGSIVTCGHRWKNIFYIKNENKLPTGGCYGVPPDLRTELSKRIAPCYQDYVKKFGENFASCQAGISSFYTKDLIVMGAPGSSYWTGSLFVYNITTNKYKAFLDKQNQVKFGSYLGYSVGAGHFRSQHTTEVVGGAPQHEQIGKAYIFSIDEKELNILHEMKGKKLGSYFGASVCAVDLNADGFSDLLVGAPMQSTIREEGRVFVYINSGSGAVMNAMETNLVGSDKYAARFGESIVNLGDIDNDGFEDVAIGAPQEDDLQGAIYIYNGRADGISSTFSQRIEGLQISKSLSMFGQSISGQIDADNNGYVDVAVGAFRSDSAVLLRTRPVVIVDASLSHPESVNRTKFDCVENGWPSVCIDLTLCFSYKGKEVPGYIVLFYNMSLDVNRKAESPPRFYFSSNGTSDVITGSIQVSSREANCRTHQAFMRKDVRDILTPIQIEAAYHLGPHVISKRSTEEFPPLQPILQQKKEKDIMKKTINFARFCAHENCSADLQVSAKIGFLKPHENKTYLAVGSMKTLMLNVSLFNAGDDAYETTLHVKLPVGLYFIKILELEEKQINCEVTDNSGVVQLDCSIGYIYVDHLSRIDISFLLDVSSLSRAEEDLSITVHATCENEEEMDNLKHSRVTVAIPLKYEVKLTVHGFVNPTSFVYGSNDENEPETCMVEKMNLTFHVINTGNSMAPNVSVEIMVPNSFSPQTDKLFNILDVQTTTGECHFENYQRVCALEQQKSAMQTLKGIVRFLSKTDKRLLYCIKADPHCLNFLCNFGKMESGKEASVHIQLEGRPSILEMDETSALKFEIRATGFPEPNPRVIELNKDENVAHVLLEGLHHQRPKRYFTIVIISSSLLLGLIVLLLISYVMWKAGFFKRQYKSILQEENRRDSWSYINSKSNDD

Columns and labels:
[1] = molecular target: endogenous PIN1 with a Twin-Strep-tag inserted at the native PIN1 locus (human (endogenous in HEK293T)) (UniProt Q13526); assay: proximity labelling
[2] = molecular target: endogenous PIN1 with a Twin-Strep-tag inserted at the native PIN1 locus (human (endogenous in HEK293T)) (UniProt Q13526); assay: proximity labelling; remark: listed apart in the source

| Molecule | binding [1] | binding [2] |
| --- | --- | --- |
| ITGA4 (from UniProt P13612 34-1032) | binds | – |
| RFC1 (protein, UniProt P35251 1-1148) MDIRKFFGVIPSGKKLVSETVKKNEKTKSDEETLKAKKGIKEIKVNSSRKEDDFKQKQPSKKKRIIYDSDSESEETLQVKNAKKPPEKLPVSSKPGKISRQDPVTYISETDEEDDFMCKKAASKSKENGRSTNSHLGTSNMKKNEENTKTKNKPLSPIKLTPTSVLDYFGTGSVQRSNKKMVASKRKELSQNTDESGLNDEAIAKQLQLDEDAELERQLHEDEEFARTLAMLDEEPKTKKARKDTEAGETFSSVQANLSKAEKHKYPHKVKTAQVSDERKSYSPRKQSKYESSKESQQHSKSSADKIGEVSSPKASSKLAIMKRKEESSYKEIEPVASKRKENAIKLKGETKTPKKTKSSPAKKESVSPEDSEKKRTNYQAYRSYLNREGPKALGSKEIPKGAENCLEGLIFVITGVLESIERDEAKSLIERYGGKVTGNVSKKTNYLVMGRDSGQSKSDKAAALGTKIIDEDGLLNLIRTMPGKKSKYEIAVETEMKKESKLERTPQKNVQGKRKISPSKKESESKKSRPTSKRDSLAKTIKKETDVFWKSLDFKEQVAEETSGDSKARNLADDSSENKVENLLWVDKYKPTSLKTIIGQQGDQSCANKLLRWLRNWQKSSSEDKKHAAKFGKFSGKDDGSSFKAALLSGPPGVGKTTTASLVCQELGYSYVELNASDTRSKSSLKAIVAESLNNTSIKGFYSNGAASSVSTKHALIMDEVDGMAGNEDRGGIQELIGLIKHTKIPIICMCNDRNHPKIRSLVHYCFDLRFQRPRVEQIKGAMMSIAFKEGLKIPPPAMNEIILGANQDIRQVLHNLSMWCARSKALTYDQAKADSHRAKKDIKMGPFDVARKVFAAGEETAHMSLVDKSDLFFHDYSIAPLFVQENYIHVKPVAAGGDMKKHLMLLSRAADSICDGDLVDSQIRSKQNWSLLPAQAIYASVLPGELMRGYMTQFPTFPSWLGKHSSTGKHDRIVQDLALHMSLRTYSSKRTVNMDYLSLLRDALVQPLTSQGVDGVQDVVALMDTYYLMKEDFENIMEISSWGGKPSPFSKLDPKVKAAFTRAYNKEAHLTPYSLQAIKASRHSTSPSLDSEYNEELNEDDSQSDEKDQDAIETDAMIKKKTKSSKPSKPEKDKEPRKGKGKSSKK | – | binds |
| MNAT (protein, UniProt P51948 1-309) MDDQGCPRCKTTKYRNPSLKLMVNVCGHTLCESCVDLLFVRGAGNCPECGTPLRKSNFRVQLFEDPTVDKEVEIRKKVLKIYNKREEDFPSLREYNDFLEEVEEIVFNLTNNVDLDNTKKKMEIYQKENKDVIQKNKLKLTREQEELEEALEVERQENEQRRLFIQKEEQLQQILKRKNKQAFLDELESSDLPVALLLAQHKDRSTQLEMQLEKPKPVKPVTFSTGIKMGQHISLAPIHKLEEALYEYQPLQIETYGPHVPELEMLGRLGYLNHVRAASPQDLAGGYTSSLACHRALQDAFSGLFWQPS | – | binds |
